# PubChem BioAssay AID1259405 – NCATS – 2018
# Purpose: 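Knock-downs that lift recombinant protein yield in hamster ovary cells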 (primary screen)
# System: Chinese hamster CHO-K1 ovary cells with stable secreted eGFP expression
# Reagents: single siRNA against mouse genes, 0.8 pmol siRNA per well (2 µl of 400 nM stock)
# Time to read-out: 3 days
# Detection: 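Per-well intracellular GFP measured by laser scanning cytometry, plus viability from ATP luminescence, each relative to plate median of non-targeting control wells, in %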
# Scale: GFP, % of control: higher = more GFP per well, higher productivity; viability (ATP), % of control: higher = more viable cells (more ATP)
# Active means: 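Called active when intracellular GFP, relative to negative control, is at or above 120%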
# The deposit covers about 50,000 reagents; this is an unselected part. About 4,000 of them (8%) count as active. 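Mouse siRNA library applied to hamster cells; one well for each siRNA.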 The numbers tell different reagents against one gene apart.
The opening 4 records as a preview:
gene,reagent,"GFP, % of control","viability (ATP), % of control",call
Ank,1,118,122,inactive
Ank,2,67.2,75.8,inactive
Ank,3,86.5,105,inactive
Ephb6,1,54.4,59.6,inactive

The list itself, repeating the preview:
gene,reagent,"GFP, % of control","viability (ATP), % of control",call
Ank,1,118,122,inactive
Ank,2,67.2,75.8,inactive
Ank,3,86.5,105,inactive
Ephb6,1,54.4,59.6,inactive
Fgd2,1,104,133,inactive
Fgd2,2,88.1,69.5,inactive
Fgd2,3,79.9,63.9,inactive
Trhde,1,106,95.6,inactive
Trhde,2,116,87.2,inactive
Trhde,3,81.8,63.8,inactive
Pax1,1,103,90.9,inactive
Pax1,2,108,95,inactive
Adam26a,1,75,92.9,inactive
Adam26a,2,64.2,71.2,inactive
Adam26a,3,59.1,84.5,inactive
Lrrc27,1,79.6,87.3,inactive
Lrrc27,2,77.1,59.9,inactive
Lrrc27,3,74,61.3,inactive
Dctpp1,1,112,59,inactive
Dctpp1,2,74.7,73.6,inactive
Dctpp1,3,83.8,89.5,inactive
Hcrtr1,1,50.5,72.7,inactive
Hcrtr1,2,52.6,68.4,inactive
Hcrtr1,3,63.2,67.4,inactive
Cops8,1,54.2,86.6,inactive
Cops8,2,43.1,68.7,inactive
Cops8,3,69.1,96.3,inactive
Pbld1,1,51.2,34,inactive
Pbld1,2,96.8,80.5,inactive
Pbld1,3,83.7,85,inactive
Zfp317,1,60.5,50.6,inactive
Zfp317,2,112,80.7,inactive
Or1ak2,1,101,74.5,inactive
Or1ak2,2,87.2,85.2,inactive
Or1ak2,3,109,58,inactive
Ypel3,1,93.8,87.5,inactive
Ypel3,2,90.6,86.4,inactive
Ypel3,3,92.9,98.2,inactive
Dsg1b,1,100,63.9,inactive
Dsg1b,2,122,72.9,active
Dsg1b,3,52,56.4,inactive
Dach2,1,72.6,67.8,inactive
Dach2,2,86.1,63.2,inactive
Rrp15,1,111,45.9,inactive
Rrp15,2,59.9,54.2,inactive
Rrp15,3,79.5,58.1,inactive
Atn1,1,95.3,87.4,inactive
Atn1,2,99.8,54.1,inactive
Atn1,3,94.1,73.8,inactive
Rhod,1,61.1,70.5,inactive
Rhod,2,45.1,55.7,inactive
Rhod,3,81.9,102,inactive
Stmn2,1,92.9,90,inactive
Stmn2,2,125,158,active
Stmn2,3,129,107,active
Kcnh5,1,173,109,active
Kcnh5,2,69.2,32.6,inactive
Kcnh5,3,84.4,75.3,inactive
